The other results are listed elsewhere or left out.
Key:
Test in all cases: log2 fold change, soluble protein after heating vs DMSO (PISA); higher = thermal stabilisation; K562 cells, 10 uM, 30 min; active = over 0.2 and 3.5 SD of the protein, either way, in both replicates (recomputed)
[1] = compound: NC(=O)Nc1cc(-c2cccc(F)c2)sc1C(=O)N[C@H]1CCCNC1
Method in brief: (§1)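 Soluble protein was quantified by TMTpro 16plex LC-MS/MS after channel sums were equalised. It was obtained as the supernatant after 21,000xg for 90 min from pooled aliquots of K562 cells (2×10^6 cells/mL, 10 μM compound, 30 min) heated for 3 min across 48°C-58°C and extracted in PBS with 0.5% NP-40 at 4°C. Thermal stability values are relative to control samples and come from duplicates. They are given as log2 fold changes.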

The chains behind the UniProt entries cited, without tags or fusion partners. Where a name states a change or a piece, a line headed by the entry shows the natural chain unless it says otherwise.
UniProt Q6RW13: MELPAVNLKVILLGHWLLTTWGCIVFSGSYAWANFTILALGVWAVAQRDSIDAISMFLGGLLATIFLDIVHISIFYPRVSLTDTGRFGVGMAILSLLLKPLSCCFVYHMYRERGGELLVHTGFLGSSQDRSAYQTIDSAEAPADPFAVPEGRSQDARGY
UniProt P13716: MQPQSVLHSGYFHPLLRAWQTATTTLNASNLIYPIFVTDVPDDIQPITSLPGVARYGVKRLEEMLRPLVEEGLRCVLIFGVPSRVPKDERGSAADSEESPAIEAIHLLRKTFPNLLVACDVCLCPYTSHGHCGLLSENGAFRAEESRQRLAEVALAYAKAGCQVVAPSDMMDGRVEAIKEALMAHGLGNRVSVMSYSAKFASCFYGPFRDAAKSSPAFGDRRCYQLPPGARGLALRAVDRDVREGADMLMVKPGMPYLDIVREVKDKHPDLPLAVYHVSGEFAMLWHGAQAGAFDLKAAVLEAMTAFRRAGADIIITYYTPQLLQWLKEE
UniProt Q9UKV8, whole entry, looked up: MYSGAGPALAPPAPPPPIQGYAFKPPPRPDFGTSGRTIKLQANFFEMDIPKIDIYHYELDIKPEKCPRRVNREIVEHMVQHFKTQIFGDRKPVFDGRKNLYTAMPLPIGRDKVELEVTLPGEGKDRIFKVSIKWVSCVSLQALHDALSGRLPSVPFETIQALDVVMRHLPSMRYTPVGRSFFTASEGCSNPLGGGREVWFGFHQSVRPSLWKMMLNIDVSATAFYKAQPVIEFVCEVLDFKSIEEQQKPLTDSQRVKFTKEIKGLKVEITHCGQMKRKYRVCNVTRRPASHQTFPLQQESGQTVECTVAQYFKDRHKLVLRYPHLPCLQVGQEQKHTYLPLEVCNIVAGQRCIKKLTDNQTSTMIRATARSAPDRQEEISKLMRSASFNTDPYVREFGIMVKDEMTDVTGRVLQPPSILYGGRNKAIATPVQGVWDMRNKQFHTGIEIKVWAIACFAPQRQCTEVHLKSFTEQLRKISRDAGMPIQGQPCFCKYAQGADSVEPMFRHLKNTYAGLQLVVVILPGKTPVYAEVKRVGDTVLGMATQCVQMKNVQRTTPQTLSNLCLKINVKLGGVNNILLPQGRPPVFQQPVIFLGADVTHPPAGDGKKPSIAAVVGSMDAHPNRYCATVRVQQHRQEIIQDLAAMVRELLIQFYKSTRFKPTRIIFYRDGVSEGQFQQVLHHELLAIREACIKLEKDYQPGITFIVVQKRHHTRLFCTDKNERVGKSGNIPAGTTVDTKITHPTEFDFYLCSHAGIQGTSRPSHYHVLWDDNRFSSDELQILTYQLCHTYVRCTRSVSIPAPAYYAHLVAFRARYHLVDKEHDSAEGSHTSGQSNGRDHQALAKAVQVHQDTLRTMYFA
UniProt Q53H12: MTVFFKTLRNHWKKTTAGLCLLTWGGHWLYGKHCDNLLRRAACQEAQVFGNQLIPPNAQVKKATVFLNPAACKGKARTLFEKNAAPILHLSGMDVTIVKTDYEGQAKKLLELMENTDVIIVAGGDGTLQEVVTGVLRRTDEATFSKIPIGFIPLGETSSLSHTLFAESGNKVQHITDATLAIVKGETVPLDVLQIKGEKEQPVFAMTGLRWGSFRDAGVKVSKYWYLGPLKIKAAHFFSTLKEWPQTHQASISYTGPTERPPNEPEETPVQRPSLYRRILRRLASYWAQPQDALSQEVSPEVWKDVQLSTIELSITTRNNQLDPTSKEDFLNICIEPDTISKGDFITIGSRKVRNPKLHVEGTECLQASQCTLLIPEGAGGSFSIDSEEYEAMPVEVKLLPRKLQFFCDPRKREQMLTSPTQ
UniProt Q9UHX3: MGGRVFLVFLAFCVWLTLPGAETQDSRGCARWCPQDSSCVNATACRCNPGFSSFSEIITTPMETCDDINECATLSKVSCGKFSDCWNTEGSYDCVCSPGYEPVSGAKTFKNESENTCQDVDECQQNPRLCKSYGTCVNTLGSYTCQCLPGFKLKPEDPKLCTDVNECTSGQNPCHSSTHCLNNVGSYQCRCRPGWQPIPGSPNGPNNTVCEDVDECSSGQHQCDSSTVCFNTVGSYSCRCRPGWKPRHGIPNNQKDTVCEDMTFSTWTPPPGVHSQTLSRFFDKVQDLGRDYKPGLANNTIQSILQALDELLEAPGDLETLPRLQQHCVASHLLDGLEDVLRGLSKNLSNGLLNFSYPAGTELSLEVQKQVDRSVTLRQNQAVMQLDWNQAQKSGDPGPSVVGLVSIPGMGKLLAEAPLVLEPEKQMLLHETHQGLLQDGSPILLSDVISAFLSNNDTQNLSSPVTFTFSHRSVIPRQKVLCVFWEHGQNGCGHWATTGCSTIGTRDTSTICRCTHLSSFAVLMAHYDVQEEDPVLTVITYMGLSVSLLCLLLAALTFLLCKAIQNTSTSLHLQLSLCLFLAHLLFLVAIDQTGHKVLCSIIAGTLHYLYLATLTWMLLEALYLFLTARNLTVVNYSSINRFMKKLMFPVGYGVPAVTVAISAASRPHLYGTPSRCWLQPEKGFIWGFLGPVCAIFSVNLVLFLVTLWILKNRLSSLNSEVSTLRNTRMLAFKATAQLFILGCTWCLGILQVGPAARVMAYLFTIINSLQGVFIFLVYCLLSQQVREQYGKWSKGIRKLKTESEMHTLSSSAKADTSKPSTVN
UniProt Q02952: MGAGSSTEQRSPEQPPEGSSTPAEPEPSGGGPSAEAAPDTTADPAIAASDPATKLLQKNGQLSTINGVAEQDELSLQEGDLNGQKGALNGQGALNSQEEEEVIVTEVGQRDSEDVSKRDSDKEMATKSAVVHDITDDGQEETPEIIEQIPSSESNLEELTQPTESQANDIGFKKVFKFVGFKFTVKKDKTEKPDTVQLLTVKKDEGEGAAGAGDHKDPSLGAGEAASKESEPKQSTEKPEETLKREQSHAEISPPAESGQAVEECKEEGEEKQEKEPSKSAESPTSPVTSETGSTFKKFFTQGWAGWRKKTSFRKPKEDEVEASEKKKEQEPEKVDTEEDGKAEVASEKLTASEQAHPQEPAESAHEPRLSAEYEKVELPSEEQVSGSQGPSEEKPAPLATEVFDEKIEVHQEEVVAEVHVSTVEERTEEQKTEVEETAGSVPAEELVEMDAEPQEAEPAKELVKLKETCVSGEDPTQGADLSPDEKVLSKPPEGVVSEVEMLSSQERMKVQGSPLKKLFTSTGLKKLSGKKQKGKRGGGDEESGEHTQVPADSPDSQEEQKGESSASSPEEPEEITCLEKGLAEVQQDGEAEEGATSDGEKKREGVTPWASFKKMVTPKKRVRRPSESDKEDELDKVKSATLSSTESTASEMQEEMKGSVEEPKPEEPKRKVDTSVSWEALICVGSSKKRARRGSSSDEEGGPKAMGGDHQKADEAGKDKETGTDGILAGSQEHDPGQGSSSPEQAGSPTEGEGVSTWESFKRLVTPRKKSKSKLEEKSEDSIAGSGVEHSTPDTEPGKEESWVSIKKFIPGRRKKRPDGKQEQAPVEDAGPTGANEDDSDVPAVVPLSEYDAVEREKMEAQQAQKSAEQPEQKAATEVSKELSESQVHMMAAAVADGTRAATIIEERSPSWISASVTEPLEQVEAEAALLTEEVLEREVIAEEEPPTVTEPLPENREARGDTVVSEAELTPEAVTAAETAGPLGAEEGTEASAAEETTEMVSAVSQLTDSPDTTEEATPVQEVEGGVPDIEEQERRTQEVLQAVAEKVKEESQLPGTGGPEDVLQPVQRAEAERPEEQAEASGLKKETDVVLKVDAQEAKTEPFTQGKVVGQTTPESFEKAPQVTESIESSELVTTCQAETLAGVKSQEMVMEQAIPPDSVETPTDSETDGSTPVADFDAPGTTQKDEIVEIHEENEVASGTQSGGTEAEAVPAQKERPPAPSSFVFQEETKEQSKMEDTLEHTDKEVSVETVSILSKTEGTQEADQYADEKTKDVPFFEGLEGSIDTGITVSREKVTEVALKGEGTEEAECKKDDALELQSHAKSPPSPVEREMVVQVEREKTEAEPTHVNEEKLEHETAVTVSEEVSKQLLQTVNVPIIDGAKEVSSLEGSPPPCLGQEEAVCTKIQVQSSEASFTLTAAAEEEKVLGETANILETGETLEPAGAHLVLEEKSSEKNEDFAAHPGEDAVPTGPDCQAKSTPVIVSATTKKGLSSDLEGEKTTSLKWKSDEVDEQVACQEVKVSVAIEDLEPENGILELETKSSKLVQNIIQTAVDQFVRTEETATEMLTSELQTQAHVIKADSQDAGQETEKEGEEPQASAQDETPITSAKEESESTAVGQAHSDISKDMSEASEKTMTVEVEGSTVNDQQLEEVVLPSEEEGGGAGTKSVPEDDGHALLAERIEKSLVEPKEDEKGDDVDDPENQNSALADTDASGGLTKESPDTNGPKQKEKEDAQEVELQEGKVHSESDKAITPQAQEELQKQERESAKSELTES
UniProt P17707: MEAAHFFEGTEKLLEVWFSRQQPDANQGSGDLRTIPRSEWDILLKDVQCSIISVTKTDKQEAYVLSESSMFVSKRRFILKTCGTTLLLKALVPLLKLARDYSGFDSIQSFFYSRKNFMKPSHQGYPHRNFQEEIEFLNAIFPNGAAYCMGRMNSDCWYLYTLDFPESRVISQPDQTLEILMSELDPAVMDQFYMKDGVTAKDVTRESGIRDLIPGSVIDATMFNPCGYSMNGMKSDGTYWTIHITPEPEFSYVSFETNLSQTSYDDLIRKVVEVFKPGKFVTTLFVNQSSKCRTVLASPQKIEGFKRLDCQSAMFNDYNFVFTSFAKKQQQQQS
UniProt P51649: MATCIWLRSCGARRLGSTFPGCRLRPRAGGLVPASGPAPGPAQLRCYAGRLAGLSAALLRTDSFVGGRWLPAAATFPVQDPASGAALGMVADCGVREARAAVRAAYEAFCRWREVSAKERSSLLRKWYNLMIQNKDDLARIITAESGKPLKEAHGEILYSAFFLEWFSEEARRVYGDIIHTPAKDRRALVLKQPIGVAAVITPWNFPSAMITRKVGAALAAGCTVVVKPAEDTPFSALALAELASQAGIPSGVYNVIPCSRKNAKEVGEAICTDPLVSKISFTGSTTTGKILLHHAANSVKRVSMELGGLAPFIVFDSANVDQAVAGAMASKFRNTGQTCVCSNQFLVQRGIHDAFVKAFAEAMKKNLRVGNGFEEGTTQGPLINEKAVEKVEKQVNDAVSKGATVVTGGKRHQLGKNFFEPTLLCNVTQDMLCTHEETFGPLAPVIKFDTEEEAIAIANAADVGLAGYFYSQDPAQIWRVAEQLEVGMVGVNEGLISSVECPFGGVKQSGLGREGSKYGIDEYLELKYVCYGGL
UniProt Q8IZ83: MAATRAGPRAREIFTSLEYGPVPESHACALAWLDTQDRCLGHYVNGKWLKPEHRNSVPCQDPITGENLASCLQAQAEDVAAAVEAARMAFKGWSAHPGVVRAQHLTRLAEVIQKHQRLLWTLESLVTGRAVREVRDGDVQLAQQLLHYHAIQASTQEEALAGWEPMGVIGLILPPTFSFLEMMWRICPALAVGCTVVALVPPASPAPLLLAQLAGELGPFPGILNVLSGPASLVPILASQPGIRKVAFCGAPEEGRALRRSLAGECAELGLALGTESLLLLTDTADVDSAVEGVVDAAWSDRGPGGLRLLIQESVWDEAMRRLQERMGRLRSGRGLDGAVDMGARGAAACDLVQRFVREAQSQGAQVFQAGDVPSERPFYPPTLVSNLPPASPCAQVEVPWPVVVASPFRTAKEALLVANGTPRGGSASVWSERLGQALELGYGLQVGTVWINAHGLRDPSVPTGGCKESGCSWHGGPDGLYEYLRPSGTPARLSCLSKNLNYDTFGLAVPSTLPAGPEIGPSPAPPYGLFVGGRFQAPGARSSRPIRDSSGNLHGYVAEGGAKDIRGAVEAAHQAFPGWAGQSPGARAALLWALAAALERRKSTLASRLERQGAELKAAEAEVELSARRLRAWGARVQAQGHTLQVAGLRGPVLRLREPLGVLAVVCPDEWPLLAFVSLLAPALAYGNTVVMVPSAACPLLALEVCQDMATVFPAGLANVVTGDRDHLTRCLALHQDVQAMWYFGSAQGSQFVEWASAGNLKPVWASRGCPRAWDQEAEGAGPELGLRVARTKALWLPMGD
UniProt Q9BVK2: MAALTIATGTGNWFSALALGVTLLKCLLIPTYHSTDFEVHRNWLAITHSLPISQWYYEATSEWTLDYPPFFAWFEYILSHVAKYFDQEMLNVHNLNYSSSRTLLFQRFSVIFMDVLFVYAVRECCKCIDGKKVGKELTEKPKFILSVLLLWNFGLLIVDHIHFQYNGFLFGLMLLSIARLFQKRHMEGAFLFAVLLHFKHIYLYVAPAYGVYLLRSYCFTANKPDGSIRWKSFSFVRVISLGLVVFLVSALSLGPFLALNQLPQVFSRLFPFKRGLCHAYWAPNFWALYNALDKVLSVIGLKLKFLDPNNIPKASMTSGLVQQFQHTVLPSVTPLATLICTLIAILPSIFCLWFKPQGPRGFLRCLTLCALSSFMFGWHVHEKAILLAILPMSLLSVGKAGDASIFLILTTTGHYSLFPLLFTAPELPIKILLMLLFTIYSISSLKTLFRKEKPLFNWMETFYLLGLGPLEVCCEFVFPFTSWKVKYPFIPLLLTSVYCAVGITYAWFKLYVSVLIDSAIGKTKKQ

[2] = compound: NC(=O)c1cnc(N[C@@H]2CCCC[C@@H]2N)nc1Nc1cccc(-n2nccn2)c1
Method in brief: as §1

[3] = compound: NC1(c2ccc(-c3nc4ccn5c(=O)[nH]nc5c4cc3-c3ccccc3)cc2)CCC1
Method in brief: as §1

[4] = compound: NCC(=O)Nc1ccc(-n2nc(C(F)(F)F)cc2-c2ccc3c(ccc4ccccc43)c2)cc1
Method in brief: as §1

entinostat = compound: Nc1ccccc1NC(=O)c1ccc(CNC(=O)OCc2cccnc2)cc1 [entinostat]
Method in brief: as §1

vorinostat = compound: O=C(CCCCCCC(=O)Nc1ccccc1)NO [vorinostat]
Method in brief: as §1

citarinostat = compound: O=C(CCCCCCNC(=O)c1cnc(N(c2ccccc2)c2ccccc2Cl)nc1)NO [citarinostat]
Method in brief: as §1

silmitasertib = compound: O=C(O)c1ccc2c(c1)nc(Nc1cccc(Cl)c1)c1ccncc12 [silmitasertib]
Method in brief: as §1

[5] = compound: O=C1NC(=O)C(c2cnc3ccccn23)=C1c1cn2c3c(cc(F)cc13)CN(C(=O)N1CCCCC1)CC2
Method in brief: as §1

[6] = compound: c1cc(OCCN2CCCCC2)cc(-c2n[nH]c3ccc(-c4nnc[nH]4)cc23)c1
Method in brief: as §1

| Target | log2 fold change [1] | log2 fold change [2] | log2 fold change [3] | log2 fold change [4] | log2 fold change (entinostat) | log2 fold change (vorinostat) | log2 fold change (citarinostat) | log2 fold change (silmitasertib) | log2 fold change [5] | log2 fold change [6] |
| --- | --- | --- | --- | --- | --- | --- | --- | --- | --- | --- |
| ALDH1A2 (UniProt O94788) | inactive: 0.003 | inactive: -0.011 | inactive: 0.003 | inactive: 0.008 | inactive: -0.022 | inactive: 0.064 | inactive: -0.016 | inactive: -0.012 | inactive: -0.004 | inactive: -0.023 |
| AGTRAP (UniProt Q6RW13) | inactive: -0.043 | inactive: -0.006 | inactive: 0.012 | inactive: 0.002 | inactive: -0.041 | inactive: -0.021 | inactive: 0.063 | inactive: 0.068 | inactive: 0.002 | inactive: -0.034 |
| ALAD isoform 2 (UniProt P13716) | inactive: 0 | inactive: 0.058 | inactive: -0.003 | inactive: 0 | inactive: -0.032 | inactive: 0.011 | inactive: -0.013 | inactive: -0.02 | inactive: -0.025 | inactive: 0.059 |
| ALDH4A1 (UniProt P30038) | inactive: -0.047 | inactive: -0.002 | inactive: -0.039 | inactive: -0.026 | inactive: -0.024 | inactive: 0.001 | inactive: 0.013 | inactive: -0.038 | inactive: -0.016 | inactive: -0.036 |
| AKR1C2 (UniProt P52895) | inactive: 0.133 | inactive: -0.092 | inactive: 0.206 | inactive: -0.006 | inactive: -0.129 | inactive: 0.012 | inactive: 0.018 | inactive: 0.257 | inactive: 0.079 | inactive: -0.076 |
| ALDOC (UniProt P09972) | inactive: 0.046 | inactive: -0.02 | inactive: 0.028 | inactive: 0.032 | inactive: -0.022 | inactive: -0.022 | inactive: 0.008 | inactive: 0.027 | inactive: -0.025 | inactive: -0.042 |
| AGO2 (UniProt Q9UKV8) | inactive: -0.008 | inactive: 0.07 | inactive: 0.096 | inactive: 0.022 | inactive: -0.072 | inactive: 0.014 | inactive: 0.012 | inactive: 0.034 | inactive: 0.074 | inactive: -0.132 |
| AFG3L2 (UniProt Q9Y4W6) | inactive: -0.008 | inactive: -0.002 | inactive: -0.126 | inactive: -0.031 | inactive: 0.02 | inactive: 0.065 | inactive: 0.032 | inactive: -0.001 | inactive: 0.001 | inactive: -0.017 |
| AGK (UniProt Q53H12) | inactive: -0.026 | inactive: -0.031 | inactive: -0.047 | inactive: -0.005 | inactive: -0.026 | inactive: 0.044 | inactive: 0.028 | inactive: 0.01 | inactive: -0.046 | inactive: 0.005 |
| ALDOC (UniProt J3QKP5) | inactive: -0.367 | inactive: -0.269 | inactive: 0.108 | inactive: -0.147 | inactive: -0.072 | inactive: -0.395 | inactive: -0.35 | inactive: 0 | inactive: -0.368 | inactive: -0.104 |
| AGO1 (UniProt Q9UL18) | inactive: 0.108 | inactive: 0.011 | inactive: 0.049 | inactive: 0.073 | inactive: -0.012 | inactive: -0.05 | active: 0.439 | inactive: 0.12 | inactive: -0.067 | inactive: -0.413 |
| ALDH9A1 isoform 3 (UniProt P49189) | inactive: 0.04 | inactive: -0.025 | inactive: -0.011 | inactive: -0.05 | inactive: 0.003 | inactive: -0.003 | inactive: 0.025 | inactive: -0.045 | inactive: -0.033 | inactive: 0.015 |
| AMPD2 (UniProt Q01433) | inactive: 0.091 | inactive: -0.005 | inactive: -0.044 | inactive: 0.004 | inactive: -0.037 | inactive: 0 | inactive: 0.024 | inactive: -0.015 | inactive: -0.01 | inactive: -0.016 |
| AGRN (UniProt O00468) | inactive: 0.016 | inactive: 0.053 | inactive: 0.033 | inactive: 0.02 | inactive: 0.035 | inactive: -0.126 | inactive: 0.01 | inactive: -0.073 | inactive: 0.087 | inactive: -0.238 |
| AK2 isoform 2 (UniProt P54819) | inactive: 0.009 | inactive: 0.004 | inactive: 0.072 | inactive: 0.014 | inactive: -0.025 | inactive: -0.016 | inactive: 0.019 | inactive: -0.04 | inactive: -0.022 | inactive: 0.01 |
| ALG2 (UniProt Q9H553) | inactive: -0.081 | inactive: -0.036 | inactive: -0.017 | inactive: -0.061 | inactive: 0.024 | inactive: -0.026 | inactive: -0.036 | inactive: 0.072 | inactive: -0.032 | inactive: -0.029 |
| ADGRE2 (UniProt Q9UHX3) | inactive: -0.02 | inactive: 0.034 | inactive: -0.089 | inactive: 0.011 | inactive: -0.035 | inactive: -0.032 | inactive: -0.112 | inactive: 0.081 | inactive: -0.037 | inactive: -0.132 |
| AKAP12 (UniProt Q02952) | inactive: 0.061 | inactive: -0.065 | inactive: -0.126 | inactive: 0.037 | inactive: 0.049 | inactive: 0.016 | inactive: 0.034 | inactive: -0.016 | inactive: -0.006 | inactive: -0.028 |
| AGO3 (UniProt Q9H9G7) | inactive: 0.03 | inactive: -0.137 | inactive: 0.375 | inactive: -0.016 | inactive: -0.018 | inactive: 0.032 | inactive: -0.086 | inactive: 0.068 | inactive: 0.106 | inactive: -0.11 |
| AMD1 (UniProt P17707) | inactive: 0.043 | inactive: -0.091 | inactive: -0.074 | inactive: -0.149 | inactive: -0.038 | inactive: -0.093 | inactive: 0.007 | inactive: 0.004 | inactive: -0.007 | inactive: -0.08 |
| AKAP1 (UniProt Q92667) | inactive: -0.063 | inactive: -0.05 | inactive: 0.017 | inactive: 0.003 | inactive: 0.014 | inactive: 0.024 | inactive: -0.019 | inactive: 0.069 | inactive: 0.118 | inactive: -0.025 |
| ADRM1 (UniProt Q16186) | inactive: -0.009 | inactive: -0.045 | inactive: -0.058 | inactive: 0.006 | inactive: -0.012 | inactive: 0.038 | inactive: 0.067 | inactive: 0 | inactive: 0.064 | inactive: -0.052 |
| AKR1A1 (UniProt P14550) | inactive: -0.013 | inactive: -0.008 | inactive: -0.064 | inactive: -0.025 | inactive: -0.008 | inactive: 0.008 | inactive: 0.048 | inactive: -0.009 | inactive: -0.049 | inactive: 0.017 |
| ALDH18A1 (UniProt P54886) | inactive: 0.033 | inactive: -0.03 | inactive: -0.34 | inactive: -0.219 | inactive: 0.249 | inactive: 0.194 | inactive: 0.031 | inactive: 0.018 | inactive: -0.329 | inactive: -0.372 |
| ALDH9A1 (UniProt P49189) | inactive: 0.079 | inactive: 0.051 | inactive: -0.024 | inactive: 0 | inactive: -0.014 | inactive: -0.209 | inactive: -0.014 | inactive: -0.033 | inactive: 0.025 | inactive: 0.055 |
| AMFR (UniProt Q9UKV5) | inactive: -0.024 | inactive: -0.128 | inactive: -0.115 | inactive: -0.075 | inactive: 0.051 | inactive: 0.055 | inactive: 0.012 | inactive: 0.07 | inactive: -0.032 | inactive: 0.021 |
| ALDH5A1 isoform 2 (UniProt P51649) | inactive: 0.014 | inactive: 0.01 | inactive: -0.018 | inactive: 0.026 | inactive: -0.01 | inactive: -0.027 | inactive: 0.045 | inactive: -0.003 | inactive: -0.017 | inactive: -0.025 |
| ALG3 (UniProt Q92685) | inactive: -0.039 | inactive: -0.037 | inactive: -0.006 | inactive: 0.045 | inactive: 0.172 | inactive: -0.046 | inactive: -0.051 | inactive: 0.034 | inactive: -0.055 | inactive: -0.027 |
| ALDH16A1 (UniProt Q8IZ83) | inactive: 0.006 | inactive: -0.032 | inactive: -0.045 | inactive: -0.042 | inactive: -0.014 | inactive: 0.01 | inactive: 0.032 | inactive: -0.026 | inactive: -0.067 | inactive: 0.019 |
| ALG8 (UniProt Q9BVK2) | inactive: -0.144 | inactive: -0.102 | inactive: -0.153 | inactive: -0.084 | inactive: 0.078 | inactive: 0.16 | inactive: 0.013 | inactive: 0.028 | inactive: -0.034 | inactive: -0.109 |

Individual results from the list:
log2 fold change (silmitasertib), ALDOC (UniProt J3QKP5) reads inactive: 0
log2 fold change [3], ALG2 (UniProt Q9H553) reads inactive: -0.017

Looked up one by one from above, two records:

| Target | log2 fold change [1] | log2 fold change [2] | log2 fold change [3] | log2 fold change [4] | log2 fold change (entinostat) | log2 fold change (vorinostat) | log2 fold change (citarinostat) | log2 fold change (silmitasertib) | log2 fold change [5] | log2 fold change [6] |
| --- | --- | --- | --- | --- | --- | --- | --- | --- | --- | --- |
| ALG3 (UniProt Q92685) | inactive: -0.039 | inactive: -0.037 | inactive: -0.006 | inactive: 0.045 | inactive: 0.172 | inactive: -0.046 | inactive: -0.051 | inactive: 0.034 | inactive: -0.055 | inactive: -0.027 |
| AGK (UniProt Q53H12) | inactive: -0.026 | inactive: -0.031 | inactive: -0.047 | inactive: -0.005 | inactive: -0.026 | inactive: 0.044 | inactive: 0.028 | inactive: 0.01 | inactive: -0.046 | inactive: 0.005 |

From the supplement of paper PMC10849652
